Measured values: publication PMC10766984, “Josephin domain containing 2 (JOSD2) promotes lung cancer by inhibiting LKB1 (Liver kinase B1) activity” (Signal Transduction and Targeted Therapy, 2024)

Molecular target: T1, GST-JOSD2 (Homo sapiens, UniProt Q8TAC2)
T1 sequence (Q8TAC2 1-188): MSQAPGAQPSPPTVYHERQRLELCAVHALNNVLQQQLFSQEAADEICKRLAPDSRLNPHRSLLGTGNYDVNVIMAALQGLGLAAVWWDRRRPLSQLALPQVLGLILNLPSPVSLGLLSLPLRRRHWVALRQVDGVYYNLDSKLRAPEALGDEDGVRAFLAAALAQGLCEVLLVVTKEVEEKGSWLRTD
Conditions: compound concentration 2 μM; JOSD2 inhibitor screening, related to Fig. 7a

Compound: CN(C)CCOC(c1ccccc1)c1ccccc1.Cn1c(=O)c2[nH]c(Cl)nc2n(C)c1=O [Dimenhydrinate]
- JOSD2 Activity Inhibition (%): -24.96%
